# This is one part of the list.
# Chains of the proteins cited; added tags and fusions are not shown. Lines headed by an entry give the natural chain unless they say otherwise; changes in a name come on top.
# UniProt Q9NSD9: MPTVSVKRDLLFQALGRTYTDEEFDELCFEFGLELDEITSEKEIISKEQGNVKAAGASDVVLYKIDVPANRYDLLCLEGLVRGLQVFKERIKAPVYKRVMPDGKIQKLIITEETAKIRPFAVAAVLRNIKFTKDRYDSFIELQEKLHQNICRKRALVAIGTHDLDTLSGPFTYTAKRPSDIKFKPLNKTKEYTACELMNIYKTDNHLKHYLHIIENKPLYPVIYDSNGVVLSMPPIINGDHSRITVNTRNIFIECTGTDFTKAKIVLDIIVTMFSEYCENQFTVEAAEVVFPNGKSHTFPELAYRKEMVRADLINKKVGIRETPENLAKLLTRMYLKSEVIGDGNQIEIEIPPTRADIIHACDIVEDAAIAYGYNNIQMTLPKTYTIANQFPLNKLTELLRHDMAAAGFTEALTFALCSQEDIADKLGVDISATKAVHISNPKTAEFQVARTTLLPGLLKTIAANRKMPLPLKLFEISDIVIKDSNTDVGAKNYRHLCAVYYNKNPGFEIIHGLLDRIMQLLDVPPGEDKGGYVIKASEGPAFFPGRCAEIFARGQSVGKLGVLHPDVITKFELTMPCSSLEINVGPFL
# UniProt Q9H469: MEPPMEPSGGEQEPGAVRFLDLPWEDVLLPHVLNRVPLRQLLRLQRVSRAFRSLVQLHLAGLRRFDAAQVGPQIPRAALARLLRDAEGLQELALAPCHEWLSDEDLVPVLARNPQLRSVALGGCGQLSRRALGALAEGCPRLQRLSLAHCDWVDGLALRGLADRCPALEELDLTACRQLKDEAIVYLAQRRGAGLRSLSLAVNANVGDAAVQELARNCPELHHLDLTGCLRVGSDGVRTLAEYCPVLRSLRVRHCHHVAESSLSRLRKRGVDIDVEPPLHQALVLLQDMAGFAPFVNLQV
# UniProt Q9UK61: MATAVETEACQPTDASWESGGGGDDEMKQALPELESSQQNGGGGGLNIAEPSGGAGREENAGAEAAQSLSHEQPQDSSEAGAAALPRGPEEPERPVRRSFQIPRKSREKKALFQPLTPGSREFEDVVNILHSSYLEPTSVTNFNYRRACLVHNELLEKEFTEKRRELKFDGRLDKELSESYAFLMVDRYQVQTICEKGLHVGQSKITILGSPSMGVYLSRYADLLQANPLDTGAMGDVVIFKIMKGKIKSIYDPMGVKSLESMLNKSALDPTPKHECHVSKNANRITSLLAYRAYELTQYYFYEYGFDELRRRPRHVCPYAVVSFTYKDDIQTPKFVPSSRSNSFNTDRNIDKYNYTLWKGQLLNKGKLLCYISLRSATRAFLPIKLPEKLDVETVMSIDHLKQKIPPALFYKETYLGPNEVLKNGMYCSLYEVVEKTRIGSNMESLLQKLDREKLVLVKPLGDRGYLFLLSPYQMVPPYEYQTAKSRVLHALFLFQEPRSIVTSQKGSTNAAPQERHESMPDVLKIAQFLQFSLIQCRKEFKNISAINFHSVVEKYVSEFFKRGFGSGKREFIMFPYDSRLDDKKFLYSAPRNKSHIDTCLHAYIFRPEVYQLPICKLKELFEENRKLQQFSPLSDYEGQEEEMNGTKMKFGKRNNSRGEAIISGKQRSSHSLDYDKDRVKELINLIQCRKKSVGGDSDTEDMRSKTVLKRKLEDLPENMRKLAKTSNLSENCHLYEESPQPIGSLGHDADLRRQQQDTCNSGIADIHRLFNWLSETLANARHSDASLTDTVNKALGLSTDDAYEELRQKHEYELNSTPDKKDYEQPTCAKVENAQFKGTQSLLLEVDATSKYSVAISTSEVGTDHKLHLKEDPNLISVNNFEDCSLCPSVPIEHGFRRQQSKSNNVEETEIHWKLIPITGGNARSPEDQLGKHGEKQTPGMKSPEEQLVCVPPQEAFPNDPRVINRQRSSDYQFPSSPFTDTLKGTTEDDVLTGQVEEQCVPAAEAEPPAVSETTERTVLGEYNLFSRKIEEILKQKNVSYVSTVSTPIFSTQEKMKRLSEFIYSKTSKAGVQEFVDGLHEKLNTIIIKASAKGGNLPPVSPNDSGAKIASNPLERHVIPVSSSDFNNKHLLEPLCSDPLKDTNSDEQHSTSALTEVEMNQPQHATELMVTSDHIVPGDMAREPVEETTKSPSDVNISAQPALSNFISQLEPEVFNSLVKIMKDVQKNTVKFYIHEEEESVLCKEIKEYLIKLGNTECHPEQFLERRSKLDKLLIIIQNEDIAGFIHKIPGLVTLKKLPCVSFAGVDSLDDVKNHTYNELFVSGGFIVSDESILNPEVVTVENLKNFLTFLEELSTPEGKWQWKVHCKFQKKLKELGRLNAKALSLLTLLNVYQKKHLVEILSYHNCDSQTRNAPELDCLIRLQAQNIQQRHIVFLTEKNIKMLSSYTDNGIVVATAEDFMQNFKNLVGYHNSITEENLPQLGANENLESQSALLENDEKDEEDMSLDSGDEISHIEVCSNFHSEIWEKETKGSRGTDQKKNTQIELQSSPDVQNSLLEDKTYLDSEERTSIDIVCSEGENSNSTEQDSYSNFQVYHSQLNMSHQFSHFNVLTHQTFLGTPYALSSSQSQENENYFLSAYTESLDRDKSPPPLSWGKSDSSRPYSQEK
# UniProt O94868: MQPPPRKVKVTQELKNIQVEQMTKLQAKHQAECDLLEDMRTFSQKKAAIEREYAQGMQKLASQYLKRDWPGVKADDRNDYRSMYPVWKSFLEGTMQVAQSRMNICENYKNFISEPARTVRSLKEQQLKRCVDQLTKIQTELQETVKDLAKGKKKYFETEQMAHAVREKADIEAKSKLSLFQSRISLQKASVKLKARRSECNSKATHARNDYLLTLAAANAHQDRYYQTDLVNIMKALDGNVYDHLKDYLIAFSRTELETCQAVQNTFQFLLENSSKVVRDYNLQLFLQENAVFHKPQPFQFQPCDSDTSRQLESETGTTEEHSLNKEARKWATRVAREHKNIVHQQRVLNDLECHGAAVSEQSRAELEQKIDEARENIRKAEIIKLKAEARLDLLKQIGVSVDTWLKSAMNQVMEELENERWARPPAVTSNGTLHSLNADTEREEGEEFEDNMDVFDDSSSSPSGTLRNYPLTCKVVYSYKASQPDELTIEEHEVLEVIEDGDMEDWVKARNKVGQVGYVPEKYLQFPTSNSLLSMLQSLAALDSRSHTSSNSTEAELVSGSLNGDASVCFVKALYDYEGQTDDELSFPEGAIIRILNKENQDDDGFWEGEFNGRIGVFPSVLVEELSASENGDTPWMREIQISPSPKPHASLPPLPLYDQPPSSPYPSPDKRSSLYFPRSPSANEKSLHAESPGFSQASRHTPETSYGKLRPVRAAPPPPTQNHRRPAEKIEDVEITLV
# UniProt P55899: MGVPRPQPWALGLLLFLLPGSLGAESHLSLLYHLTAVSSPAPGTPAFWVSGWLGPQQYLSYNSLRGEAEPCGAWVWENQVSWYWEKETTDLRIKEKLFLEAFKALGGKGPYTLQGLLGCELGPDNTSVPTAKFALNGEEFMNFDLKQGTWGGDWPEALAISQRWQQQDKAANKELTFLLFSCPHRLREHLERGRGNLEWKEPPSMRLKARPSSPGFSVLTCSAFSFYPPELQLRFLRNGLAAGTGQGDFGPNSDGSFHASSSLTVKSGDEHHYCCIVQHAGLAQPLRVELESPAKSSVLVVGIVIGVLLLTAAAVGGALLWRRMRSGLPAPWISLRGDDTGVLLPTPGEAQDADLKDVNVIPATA
# UniProt Q8N612: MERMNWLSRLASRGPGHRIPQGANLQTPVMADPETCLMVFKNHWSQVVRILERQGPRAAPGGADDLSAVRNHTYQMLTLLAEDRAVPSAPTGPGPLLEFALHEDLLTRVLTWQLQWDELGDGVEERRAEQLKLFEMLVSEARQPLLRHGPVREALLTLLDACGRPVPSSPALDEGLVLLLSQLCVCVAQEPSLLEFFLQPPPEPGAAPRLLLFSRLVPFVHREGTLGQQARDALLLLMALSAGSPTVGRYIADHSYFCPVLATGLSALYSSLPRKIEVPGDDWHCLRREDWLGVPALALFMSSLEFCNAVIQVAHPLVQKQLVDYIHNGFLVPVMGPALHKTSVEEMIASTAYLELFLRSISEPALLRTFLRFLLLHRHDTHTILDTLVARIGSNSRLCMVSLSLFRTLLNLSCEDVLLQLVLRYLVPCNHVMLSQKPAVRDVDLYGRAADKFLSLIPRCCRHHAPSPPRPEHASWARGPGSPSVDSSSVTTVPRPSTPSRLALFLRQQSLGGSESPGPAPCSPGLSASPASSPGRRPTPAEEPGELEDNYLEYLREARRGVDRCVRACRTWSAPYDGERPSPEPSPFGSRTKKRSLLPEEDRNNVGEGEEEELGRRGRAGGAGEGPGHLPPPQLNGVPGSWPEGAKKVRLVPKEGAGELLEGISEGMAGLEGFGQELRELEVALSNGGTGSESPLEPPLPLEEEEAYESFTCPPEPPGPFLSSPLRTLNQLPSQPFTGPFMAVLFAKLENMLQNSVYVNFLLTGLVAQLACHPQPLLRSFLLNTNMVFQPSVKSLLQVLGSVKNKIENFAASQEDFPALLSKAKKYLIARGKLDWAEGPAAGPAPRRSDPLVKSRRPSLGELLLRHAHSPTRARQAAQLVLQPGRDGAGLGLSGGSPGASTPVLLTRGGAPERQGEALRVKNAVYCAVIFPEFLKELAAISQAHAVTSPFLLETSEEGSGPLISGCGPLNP
# UniProt Q8TB52: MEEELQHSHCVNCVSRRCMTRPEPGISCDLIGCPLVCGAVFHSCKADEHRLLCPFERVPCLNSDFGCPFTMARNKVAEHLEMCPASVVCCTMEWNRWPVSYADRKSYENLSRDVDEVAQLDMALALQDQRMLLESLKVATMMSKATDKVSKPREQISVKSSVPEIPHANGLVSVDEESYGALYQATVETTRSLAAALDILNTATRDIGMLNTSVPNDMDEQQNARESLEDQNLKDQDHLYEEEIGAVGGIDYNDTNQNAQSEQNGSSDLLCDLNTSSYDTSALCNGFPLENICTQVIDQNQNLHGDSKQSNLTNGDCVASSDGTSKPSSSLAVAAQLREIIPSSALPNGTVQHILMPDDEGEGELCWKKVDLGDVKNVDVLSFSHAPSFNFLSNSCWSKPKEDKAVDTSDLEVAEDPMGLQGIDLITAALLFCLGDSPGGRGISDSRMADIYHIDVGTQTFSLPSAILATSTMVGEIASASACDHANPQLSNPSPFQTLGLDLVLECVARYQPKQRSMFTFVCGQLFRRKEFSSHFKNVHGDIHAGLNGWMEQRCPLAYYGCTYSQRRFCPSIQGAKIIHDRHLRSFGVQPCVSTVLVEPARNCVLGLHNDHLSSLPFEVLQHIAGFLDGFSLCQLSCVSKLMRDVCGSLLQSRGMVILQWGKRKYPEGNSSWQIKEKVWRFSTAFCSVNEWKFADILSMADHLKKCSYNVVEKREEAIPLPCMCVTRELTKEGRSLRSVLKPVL
# UniProt Q658Y4: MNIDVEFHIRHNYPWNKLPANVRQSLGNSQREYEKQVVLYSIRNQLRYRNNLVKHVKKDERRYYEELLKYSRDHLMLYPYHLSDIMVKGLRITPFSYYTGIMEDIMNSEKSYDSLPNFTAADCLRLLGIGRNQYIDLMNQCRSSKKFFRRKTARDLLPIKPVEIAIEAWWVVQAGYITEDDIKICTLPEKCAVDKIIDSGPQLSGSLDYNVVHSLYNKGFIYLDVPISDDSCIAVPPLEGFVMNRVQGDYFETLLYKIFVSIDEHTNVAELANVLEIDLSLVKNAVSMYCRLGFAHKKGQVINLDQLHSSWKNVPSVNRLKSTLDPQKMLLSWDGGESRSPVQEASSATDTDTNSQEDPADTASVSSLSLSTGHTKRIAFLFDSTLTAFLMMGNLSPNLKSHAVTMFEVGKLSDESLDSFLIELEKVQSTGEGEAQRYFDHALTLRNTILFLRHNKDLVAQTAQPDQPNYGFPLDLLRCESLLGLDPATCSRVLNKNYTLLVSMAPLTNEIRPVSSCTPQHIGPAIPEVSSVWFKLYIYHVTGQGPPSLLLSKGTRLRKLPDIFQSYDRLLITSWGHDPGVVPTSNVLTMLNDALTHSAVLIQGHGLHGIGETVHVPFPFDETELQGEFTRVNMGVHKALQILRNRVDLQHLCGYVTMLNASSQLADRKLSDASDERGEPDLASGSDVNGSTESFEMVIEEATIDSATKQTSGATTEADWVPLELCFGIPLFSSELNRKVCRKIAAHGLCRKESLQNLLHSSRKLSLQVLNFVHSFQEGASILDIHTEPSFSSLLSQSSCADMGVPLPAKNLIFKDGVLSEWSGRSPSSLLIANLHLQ
# UniProt Q9NX38: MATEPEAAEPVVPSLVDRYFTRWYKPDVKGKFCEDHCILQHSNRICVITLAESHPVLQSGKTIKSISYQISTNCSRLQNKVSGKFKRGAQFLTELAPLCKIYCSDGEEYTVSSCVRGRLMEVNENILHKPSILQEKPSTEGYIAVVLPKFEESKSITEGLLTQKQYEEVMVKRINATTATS
# Compound: Cc1cc(ccc1-c1ccccc1)C(=O)N1CCCN(CC1)C(=O)CCl [compound 10]
# Assay: probe-labelled cysteine peptide fold change vs DMSO (competition) (log2 fold change); higher = less target engagement (more negative = stronger competition)
# Conditions: 50 µM; THP-1; incubation time: 4 h
# 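Note: competitive profiling in live THP-1 cells: cysteine peptides tagged with an iodoacetamide desthiobiotin (IA-DTB) probe, intensity after compound treatment relative to DMSO-treated cells.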
row,Target,probe-labelled cysteine peptide fold change
1,FER_P16591-3_23_DQLESGFGSQSCK (UniProt P16591),-0.535
2,FASN_P49327_1558_HAQPTCPGAQLCTVYYASLNFRDIMLATGK (UniProt P49327),-0.657
3,FARSB_Q9NSD9_498_HLCAVYYNK (UniProt Q9NSD9),0.186
4,FBXL15_Q9H469_150_LSLAHCDWVDGLALR (UniProt Q9H469),-0.73
5,FAM208A_Q9UK61_1245_FYIHEEEESVLCK (UniProt Q9UK61),-0.00682
6,FCHSD2_O94868_260_TELETCQAVQNTFQFLLENSSK (UniProt O94868),0.276
7,FASTKD2_Q9NYY8_366_SLILLDECSK (UniProt Q9NYY8),-0.107
8,FCGRT_P55899_275_SGDEHHYCCIVQHAGLAQPLR (UniProt P55899),0.0157
9,FAM160A2_Q8N612_927_NAVYCAVIFPEFLK (UniProt Q8N612),0.217
10,FBXO30_Q8TB52_592_SFGVQPCVSTVLVEPAR (UniProt Q8TB52),-0.247
11,FAM91A1_Q658Y4_750_IAAHGLCR (UniProt Q658Y4),0.0943
12,FAM206A_Q9NX38_74_SISYQISTNCSR (UniProt Q9NX38),-0.527

# Part of the list above, tab-delimited:
row	Target	probe-labelled cysteine peptide fold change
5	FAM208A_Q9UK61_1245_FYIHEEEESVLCK (UniProt Q9UK61)	-0.00682
12	FAM206A_Q9NX38_74_SISYQISTNCSR (UniProt Q9NX38)	-0.527
